Data: patent US10941139B2 (priority 2015, dated 2021)

Assay: general procedure: solution-phase peptide synthesis; HATU/HOAt/DIEA; EDC/HOBt
Conditions: cyclisation step
“(3S,10R,16S, E)-10-(3-chloro-4-methoxybenzyl)-16-((R,E)-4-(4-(hydroxymethyl)-phenyl)but-3-en-2-yl)-6,6,7-trimethyl-3-neopentyl-1-oxa-4,8,11-triazacyclohexadec-13-ene-2,5,9,12-tetraone” gave a cyclisation yield of 54%. For “(3S,10R,16S, E)-10-(3-chloro-4-methoxybenzyl)-16-((R,E)-4-(4-(hydroxymethyl)-phenyl)but-3-en-2-yl)-6,6-dimethyl-3-neopentyl-1-oxa-4,8,11-triazacyclohexadec-13-ene-2,5,9,12-tetraone”, the cyclisation yield was 70%. “(3S,10R,16S,E)-16-((R,E)-4-(4-(azidomethyl)phenyl)but-3-en-2-yl)-10-(3-chloro-4-methoxybenzyl)-3-isobutyl-6,6-dimethyl-1-oxa-4,8,11-triazacyclohexadec-13-ene-2,5,9,12-tetraone” gave a cyclisation yield of 68%.

Same assay, conditions: cyclisation step; run 1
For “(3S,7S,10R,16S, E)-10-(3-chloro-4-methoxybenzyl)-16-((R)-1-((4-methoxy-benzyl)oxy)propan-2-yl)-6,6,7-trimethyl-3-neopentyl-1-oxa-4,8,11-triazacyclohexadec-13-ene-2,5,9,12-tetraone”, the cyclisation yield was 61% and 37%. “(3S,10R,16S, E)-16-((R,E)-4-(4-(azidomethyl)phenyl)but-3-en-2-yl)-10-(3-chloro-4-methoxybenzyl)-3-isobutyl-6,6,7-trimethyl-1-oxa-4,8,11-triazacyclohexadec-13-ene-2,5,9,12-tetraone [44]” showed a cyclisation yield of 17%. Substance “(3S,10R,16S, E)-16-((R,E)-4-(4-(azidomethyl)phenyl)but-3-en-2-yl)-10-(3-chloro-4-methoxybenzyl)-3-isobutyl-6,6,7-trimethyl-1-oxa-4,8,11-triazacyclohexadec-13-ene-2,5,9,12-tetraone [45]” has a cyclisation yield of 19%. Substance “(3S,10R,16S,E)-10-(3-chloro-4-methoxybenzyl)-6-(hydroxymethyl)-16-((R)-1-((4-methoxybenzyl)oxy)propan-2-yl)-6-methyl-3-neopentyl-1-oxa-4,8,11-triazacyclohexadec-13-ene-2,5,9,12-tetraone [76 stereomer 1]” has a cyclisation yield of 56%. Work on “(3S,10R,16S,E)-10-(3-chloro-4-methoxybenzyl)-6-(hydroxymethyl)-16-((R)-1-((4-methoxybenzyl)oxy)propan-2-yl)-6-methyl-3-neopentyl-1-oxa-4,8,11-triazacyclohexadec-13-ene-2,5,9,12-tetraone [76 stereomer 2]” yielded a cyclisation yield of 37%.

Same assay, conditions: late stage modification step
“2,5-dioxopyrrolidin-1-yl (9S,12S)-1-(4-((2R,3R)-3-((S)-1-((3S,7S,10R,16S,E)-10-(3-chloro-4-methoxybenzyl)-6,6,7-trimethyl-3-neopentyl-2,5,9,12-tetraoxo-1-oxa-4,8,11-triazacyclo-hexadec-13-en-16-yl)ethyl)oxiran-2-yl)phenyl)-12-isopropyl-9-methyl-3,8,11,14-tetraoxo-2-oxa-4,7,10,13-tetraaza” gave a step yield of 72%. Substance “3-((1-(4-((2R,3R)-3-((S)-1-((3S,7S,10R,16S, E)-10-(3-chloro-4-methoxybenzyl)-6,6,7-trimethyl-3-neopentyl-2,5,9,12-tetraoxo-1-oxa-4,8,11-triazacyclohexadec-13-en-16-yl)ethyl)oxiran-2-yl)benzyl)-1H-1,2,3-triazol-4-yl)methoxy)propanoic Acid” has a step yield of 35%. With “4-((2R,3R)-3-((S)-1-((3S,7S,10R,16S,E)-10-(3-chloro-4-methoxybenzyl)-6,6,7-trimethyl-3-neopentyl-2,5,9,12-tetraoxo-1-oxa-4,8,11-triazacyclohexadec-13-en-16-yl)ethyl)oxiran-2-yl)benzyl (4-nitrophenyl) carbonate” the step yield was 94%. With “(2E,5S,6R,7E)-5-(((S)-2-(3-((R)-2-amino-3-(3-chloro-4-methoxyphenyl)-propanamido)-2,2-dimethylpropanamido)-4,4-dimethylpentanoyl)oxy)-8-(4-(hydroxymethyl)-phenyl)-6-methylocta-2,7-dienoic acid” the step yield was 82%. “(3S,7S,10R,16S,E)-10-(3-chloro-4-methoxybenzyl)-6,6,7-trimethyl-3-neopentyl-16-((S)-1-((2R,3R)-3-(4-(((triisopropylsilyl)oxy)methyl)phenyl)oxiran-2-yl)ethyl)-1-oxa-4,8,11-triazacyclohexadec-13-ene-2,5,9,12-tetraone” showed a step yield of 30%. In the case of “(3S,7S,10R,16S,E)-10-(3-chloro-4-methoxybenzyl)-16-((R)-1-hydroxypropan-2-yl)-6,6,7-trimethyl-3-neopentyl-1-oxa-4,8,11-triazacyclohexadec-13-ene-2,5,9,12-tetraone”, the step yield is reported as 67%. Substance “(3S,10R,16S,E)-10-(3-chloro-4-methoxybenzyl)-16-((S)-1-((2R,3R)-3-(4-(hydroxy-methyl)phenyl)oxiran-2-yl)ethyl)-6,6-dimethyl-3-neopentyl-1-oxa-4,8,11-triazacyclohexadec-13-ene-2,5,9,12-tetraone” has a step yield of 31%. In the case of “(3S,10R,16S,E)-10-(3-chloro-4-methoxybenzyl)-16-((S)-1-((2R,3R)-3-(4-(hydroxymethyl)phenyl)oxiran-2-yl)ethyl)-6,6,7-trimethyl-3-neopentyl-1-oxa-4,8,11-triazacyclohexadec-13-ene-2,5,9,12-tetraone”, the step yield is reported as 45%. Substance “(3S,10R,16S,E)-16-((S)-1-((2R,3R)-3-(4-(aminomethyl)phenyl)oxiran-2-yl)ethyl)-10-(3-chloro-4-methoxybenzyl)-3-isobutyl-6,6-dimethyl-1-oxa-4,8,11-triazacyclohexadec-13-ene-2,5,9,12-tetraone” has a step yield of 51%. “(3S,10R,16S,E)-16-((S)-1-((2R,3R)-3-(4-(aminomethyl)phenyl)oxiran-2-yl)ethyl)-10-(3-chloro-4-methoxybenzyl)-6,6,7-trimethyl-3-neopentyl-1-oxa-4,8,11-triazacyclohexadec-13-ene-2,5,9,12-tetraone” gave a step yield of 68%. Substance “(3S,10R,16S,E)-16-((S)-1-((2R,3R)-3-(4-(aminomethyl)phenyl)oxiran-2-yl)ethyl)-10-(3-chloro-4-methoxybenzyl)-6,6-dimethyl-3-neopentyl-1-oxa-4,8,11-triazacyclohexadec-13-ene-2,5,9,12-tetraone” has a step yield of 84%.

Same assay, conditions: late stage modification step; run 1
Work on “(3S,10R,16S, E)-16-((S)-1-((2R,3R)-3-(4-(azidomethyl)phenyl)oxiran-2-yl)ethyl)-10-(3-chloro-4-methoxybenzyl)-3-isobutyl-6,6-dimethyl-1-oxa-4,8,11-triazacyclohexadec-13-ene-2,5,9,12-tetraone” yielded a step yield of 44%. Substance “(3S,10R,16S,E)-10-(3-chloro-4-methoxybenzyl)-16-((R)-1-((4-methoxy-benzyl)oxy)propan-2-yl)-6-methyl-3-neopentyl-6-(((triethylsilyl)oxy)methyl)-1-oxa-4,8,11-triaza-cyclohexadec-13-ene-2,5,9,12-tetraone [77 stereomer 1]” has a step yield of 39%. With “(3S,10R,16S,E)-10-(3-chloro-4-methoxybenzyl)-16-((R)-1-((4-methoxy-benzyl)oxy)propan-2-yl)-6-methyl-3-neopentyl-6-(((triethylsilyl)oxy)methyl)-1-oxa-4,8,11-triaza-cyclohexadec-13-ene-2,5,9,12-tetraone [77 stereomer 2]” the step yield was 30%.

Same assay, conditions: late stage modification step; run 2
Substance “(3S,10R,16S, E)-16-((S)-1-((2R,3R)-3-(4-(azidomethyl)phenyl)oxiran-2-yl)ethyl)-10-(3-chloro-4-methoxybenzyl)-3-isobutyl-6,6-dimethyl-1-oxa-4,8,11-triazacyclohexadec-13-ene-2,5,9,12-tetraone” has a step yield of 57%.

“And” between values parts separate entries of the source, which are not always exact repeats. Equal values may be shown once.
